From the supplement of paper PMC6411743
± gives the standard deviation of the averaged measurements. This is a selection; strong and weak results do not stand in their true shares.

By UniProt entry, the sequences of proteins in these tests, tags left out. Where a name states a change or a piece, a line headed by the entry shows the natural chain unless it says otherwise.
UniProt Q9P0J7: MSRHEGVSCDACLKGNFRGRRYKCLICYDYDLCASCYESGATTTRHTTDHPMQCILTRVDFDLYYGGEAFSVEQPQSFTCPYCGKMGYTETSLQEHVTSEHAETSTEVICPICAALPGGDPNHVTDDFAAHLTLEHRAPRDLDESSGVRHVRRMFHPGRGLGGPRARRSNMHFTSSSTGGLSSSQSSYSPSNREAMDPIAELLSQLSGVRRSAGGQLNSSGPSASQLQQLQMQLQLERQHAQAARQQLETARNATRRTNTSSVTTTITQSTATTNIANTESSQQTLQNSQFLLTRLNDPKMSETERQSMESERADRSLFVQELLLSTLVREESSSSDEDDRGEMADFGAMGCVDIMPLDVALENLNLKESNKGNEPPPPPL
UniProt Q9P0W2: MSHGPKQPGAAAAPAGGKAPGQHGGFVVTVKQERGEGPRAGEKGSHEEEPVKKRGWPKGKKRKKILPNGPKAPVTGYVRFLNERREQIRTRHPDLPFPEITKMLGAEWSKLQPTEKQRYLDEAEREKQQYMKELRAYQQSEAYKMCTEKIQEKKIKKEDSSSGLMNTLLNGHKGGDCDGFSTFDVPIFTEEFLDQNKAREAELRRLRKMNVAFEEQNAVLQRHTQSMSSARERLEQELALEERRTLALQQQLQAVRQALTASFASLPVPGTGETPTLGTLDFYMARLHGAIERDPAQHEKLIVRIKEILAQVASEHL
UniProt Q9NX55: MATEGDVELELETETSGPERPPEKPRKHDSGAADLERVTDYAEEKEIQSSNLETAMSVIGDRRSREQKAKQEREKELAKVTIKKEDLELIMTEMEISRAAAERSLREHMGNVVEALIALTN
UniProt Q9NQG7: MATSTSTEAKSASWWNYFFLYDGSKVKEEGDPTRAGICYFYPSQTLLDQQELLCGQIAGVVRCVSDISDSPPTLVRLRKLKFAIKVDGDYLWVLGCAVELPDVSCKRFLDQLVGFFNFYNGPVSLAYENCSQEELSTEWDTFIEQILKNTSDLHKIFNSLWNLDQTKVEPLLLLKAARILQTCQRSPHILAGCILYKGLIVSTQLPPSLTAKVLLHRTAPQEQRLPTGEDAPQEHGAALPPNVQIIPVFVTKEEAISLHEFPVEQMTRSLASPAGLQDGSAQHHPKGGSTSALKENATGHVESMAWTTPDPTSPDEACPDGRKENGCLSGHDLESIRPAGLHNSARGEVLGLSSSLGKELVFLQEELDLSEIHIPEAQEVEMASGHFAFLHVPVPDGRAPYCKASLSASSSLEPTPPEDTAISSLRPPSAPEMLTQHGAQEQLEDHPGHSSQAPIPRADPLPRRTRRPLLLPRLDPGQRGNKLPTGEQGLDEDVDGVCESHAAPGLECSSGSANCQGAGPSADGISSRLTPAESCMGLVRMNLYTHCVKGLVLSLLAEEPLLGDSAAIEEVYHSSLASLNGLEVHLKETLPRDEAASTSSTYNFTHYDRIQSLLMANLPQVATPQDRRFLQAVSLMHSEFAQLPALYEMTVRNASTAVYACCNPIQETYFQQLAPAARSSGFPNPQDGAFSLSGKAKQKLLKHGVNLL
UniProt Q9NR12, whole entry: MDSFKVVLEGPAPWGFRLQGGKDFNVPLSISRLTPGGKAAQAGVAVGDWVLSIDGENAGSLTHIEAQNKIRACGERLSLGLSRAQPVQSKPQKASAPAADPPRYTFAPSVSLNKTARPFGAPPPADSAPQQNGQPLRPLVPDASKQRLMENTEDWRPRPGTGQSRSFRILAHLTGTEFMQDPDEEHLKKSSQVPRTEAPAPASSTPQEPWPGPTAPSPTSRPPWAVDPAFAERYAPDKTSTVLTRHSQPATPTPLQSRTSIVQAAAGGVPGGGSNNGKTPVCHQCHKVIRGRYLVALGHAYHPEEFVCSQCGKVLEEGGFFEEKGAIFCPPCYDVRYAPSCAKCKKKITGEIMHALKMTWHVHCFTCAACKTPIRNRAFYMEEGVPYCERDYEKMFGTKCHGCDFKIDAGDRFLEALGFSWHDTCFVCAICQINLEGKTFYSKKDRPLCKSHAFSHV
UniProt Q9NW82: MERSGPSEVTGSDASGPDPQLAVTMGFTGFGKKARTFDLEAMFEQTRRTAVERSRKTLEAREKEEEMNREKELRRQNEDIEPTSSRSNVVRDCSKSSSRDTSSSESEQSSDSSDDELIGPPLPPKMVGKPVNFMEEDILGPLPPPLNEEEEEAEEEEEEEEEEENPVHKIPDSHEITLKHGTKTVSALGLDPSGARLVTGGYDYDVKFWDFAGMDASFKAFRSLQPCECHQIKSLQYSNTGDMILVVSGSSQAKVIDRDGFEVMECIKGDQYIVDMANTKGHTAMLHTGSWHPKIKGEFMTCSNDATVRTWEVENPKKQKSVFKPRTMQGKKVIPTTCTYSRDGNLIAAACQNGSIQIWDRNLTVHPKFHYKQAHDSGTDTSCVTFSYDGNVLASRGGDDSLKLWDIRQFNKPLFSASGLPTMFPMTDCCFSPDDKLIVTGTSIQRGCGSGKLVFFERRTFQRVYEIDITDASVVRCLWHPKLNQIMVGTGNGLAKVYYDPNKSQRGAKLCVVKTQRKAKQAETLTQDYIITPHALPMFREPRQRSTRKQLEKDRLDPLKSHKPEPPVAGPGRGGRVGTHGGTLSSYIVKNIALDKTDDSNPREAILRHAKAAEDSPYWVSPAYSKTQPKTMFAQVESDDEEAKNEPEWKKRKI
UniProt Q9NUQ8: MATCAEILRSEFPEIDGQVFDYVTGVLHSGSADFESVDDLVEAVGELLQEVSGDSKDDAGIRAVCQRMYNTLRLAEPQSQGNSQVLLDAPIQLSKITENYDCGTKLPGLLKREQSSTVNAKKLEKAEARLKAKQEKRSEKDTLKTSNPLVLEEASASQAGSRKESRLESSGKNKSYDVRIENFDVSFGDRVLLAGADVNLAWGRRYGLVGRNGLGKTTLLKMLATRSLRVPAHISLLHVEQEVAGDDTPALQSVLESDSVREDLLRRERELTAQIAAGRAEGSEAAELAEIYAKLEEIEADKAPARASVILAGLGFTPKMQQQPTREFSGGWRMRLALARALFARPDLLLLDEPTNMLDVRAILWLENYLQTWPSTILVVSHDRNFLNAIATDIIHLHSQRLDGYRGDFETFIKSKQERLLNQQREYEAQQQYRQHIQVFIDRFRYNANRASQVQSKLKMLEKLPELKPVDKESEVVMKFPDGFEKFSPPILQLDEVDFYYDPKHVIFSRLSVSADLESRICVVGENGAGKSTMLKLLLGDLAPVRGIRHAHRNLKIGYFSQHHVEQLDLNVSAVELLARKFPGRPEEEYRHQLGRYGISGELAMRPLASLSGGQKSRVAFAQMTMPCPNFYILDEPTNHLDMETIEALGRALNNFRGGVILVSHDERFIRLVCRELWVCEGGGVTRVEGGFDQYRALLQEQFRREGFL
UniProt Q9NS86: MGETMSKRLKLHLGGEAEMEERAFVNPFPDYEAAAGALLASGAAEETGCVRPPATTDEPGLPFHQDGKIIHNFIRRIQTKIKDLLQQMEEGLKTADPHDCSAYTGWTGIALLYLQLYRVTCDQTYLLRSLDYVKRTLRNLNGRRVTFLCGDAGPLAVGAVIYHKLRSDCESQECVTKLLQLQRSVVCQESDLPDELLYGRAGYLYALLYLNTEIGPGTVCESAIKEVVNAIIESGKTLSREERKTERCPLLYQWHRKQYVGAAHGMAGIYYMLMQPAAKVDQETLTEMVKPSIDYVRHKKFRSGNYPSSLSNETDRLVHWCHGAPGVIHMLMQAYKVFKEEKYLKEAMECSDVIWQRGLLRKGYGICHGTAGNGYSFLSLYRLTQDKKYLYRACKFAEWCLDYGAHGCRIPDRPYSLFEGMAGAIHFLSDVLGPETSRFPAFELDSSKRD
UniProt Q9NQ66: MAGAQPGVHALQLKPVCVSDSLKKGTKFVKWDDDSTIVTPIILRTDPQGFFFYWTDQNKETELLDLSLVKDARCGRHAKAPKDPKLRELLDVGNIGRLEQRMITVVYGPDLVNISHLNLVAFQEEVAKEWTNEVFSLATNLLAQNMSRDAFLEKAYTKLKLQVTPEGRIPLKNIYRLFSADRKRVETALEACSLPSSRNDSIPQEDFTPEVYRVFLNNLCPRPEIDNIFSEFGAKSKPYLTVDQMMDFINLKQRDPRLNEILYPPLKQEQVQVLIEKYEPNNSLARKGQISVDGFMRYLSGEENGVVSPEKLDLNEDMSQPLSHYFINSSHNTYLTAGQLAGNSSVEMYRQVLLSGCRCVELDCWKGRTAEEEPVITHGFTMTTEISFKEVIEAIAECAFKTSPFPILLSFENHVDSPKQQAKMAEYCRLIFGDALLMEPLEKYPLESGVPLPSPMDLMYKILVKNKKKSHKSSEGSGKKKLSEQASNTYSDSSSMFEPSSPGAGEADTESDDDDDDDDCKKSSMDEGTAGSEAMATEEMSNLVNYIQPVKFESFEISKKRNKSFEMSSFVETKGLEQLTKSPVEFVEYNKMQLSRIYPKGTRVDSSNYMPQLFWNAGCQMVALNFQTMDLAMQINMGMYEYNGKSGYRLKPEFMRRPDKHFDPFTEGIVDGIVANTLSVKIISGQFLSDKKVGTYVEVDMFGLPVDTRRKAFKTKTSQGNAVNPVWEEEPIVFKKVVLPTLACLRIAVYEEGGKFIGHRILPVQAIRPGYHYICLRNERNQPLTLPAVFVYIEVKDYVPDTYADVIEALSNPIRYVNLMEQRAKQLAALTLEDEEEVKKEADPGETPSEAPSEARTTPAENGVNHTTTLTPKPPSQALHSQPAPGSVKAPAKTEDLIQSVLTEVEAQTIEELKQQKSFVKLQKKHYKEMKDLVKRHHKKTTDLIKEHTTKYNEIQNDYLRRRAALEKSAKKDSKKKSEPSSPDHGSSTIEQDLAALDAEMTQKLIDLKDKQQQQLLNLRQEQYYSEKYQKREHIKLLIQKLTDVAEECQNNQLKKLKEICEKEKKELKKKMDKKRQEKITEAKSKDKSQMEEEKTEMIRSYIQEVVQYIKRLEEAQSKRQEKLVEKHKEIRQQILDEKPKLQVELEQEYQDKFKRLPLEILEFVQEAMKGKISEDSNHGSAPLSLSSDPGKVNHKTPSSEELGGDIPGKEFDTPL
UniProt Q9P0B6: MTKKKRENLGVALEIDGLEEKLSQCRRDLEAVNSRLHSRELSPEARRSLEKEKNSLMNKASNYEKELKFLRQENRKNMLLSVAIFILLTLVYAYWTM
UniProt Q9NQT4, whole entry: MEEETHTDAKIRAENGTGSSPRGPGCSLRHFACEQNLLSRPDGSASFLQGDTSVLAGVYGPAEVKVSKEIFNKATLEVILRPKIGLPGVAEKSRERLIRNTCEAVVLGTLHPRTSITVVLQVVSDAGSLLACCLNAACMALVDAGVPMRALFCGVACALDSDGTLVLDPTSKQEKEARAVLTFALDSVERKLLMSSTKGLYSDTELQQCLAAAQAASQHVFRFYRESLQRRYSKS
UniProt Q9NQS7, whole entry: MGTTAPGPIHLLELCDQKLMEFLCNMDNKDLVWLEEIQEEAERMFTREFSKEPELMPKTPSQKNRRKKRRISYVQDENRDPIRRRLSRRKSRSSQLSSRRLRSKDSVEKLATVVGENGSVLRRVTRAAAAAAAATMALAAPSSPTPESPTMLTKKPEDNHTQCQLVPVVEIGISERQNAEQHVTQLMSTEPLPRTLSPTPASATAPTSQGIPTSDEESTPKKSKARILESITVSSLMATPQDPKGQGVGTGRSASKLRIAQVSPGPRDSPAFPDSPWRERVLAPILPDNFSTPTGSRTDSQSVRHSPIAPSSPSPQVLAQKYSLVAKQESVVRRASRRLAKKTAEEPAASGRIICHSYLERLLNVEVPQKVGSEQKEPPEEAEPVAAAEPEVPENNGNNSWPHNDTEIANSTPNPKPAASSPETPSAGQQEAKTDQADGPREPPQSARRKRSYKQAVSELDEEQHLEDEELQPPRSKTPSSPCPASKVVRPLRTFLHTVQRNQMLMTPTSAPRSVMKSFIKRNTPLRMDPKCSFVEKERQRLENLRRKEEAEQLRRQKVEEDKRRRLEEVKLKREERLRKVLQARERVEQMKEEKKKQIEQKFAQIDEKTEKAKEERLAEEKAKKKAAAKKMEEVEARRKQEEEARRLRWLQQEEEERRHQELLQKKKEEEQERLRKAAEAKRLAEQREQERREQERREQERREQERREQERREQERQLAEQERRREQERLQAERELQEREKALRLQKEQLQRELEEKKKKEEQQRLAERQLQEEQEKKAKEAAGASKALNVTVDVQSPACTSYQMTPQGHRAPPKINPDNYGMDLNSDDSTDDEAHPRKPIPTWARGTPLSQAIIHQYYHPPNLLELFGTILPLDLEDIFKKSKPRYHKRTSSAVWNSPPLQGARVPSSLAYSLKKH
UniProt Q9NUJ1: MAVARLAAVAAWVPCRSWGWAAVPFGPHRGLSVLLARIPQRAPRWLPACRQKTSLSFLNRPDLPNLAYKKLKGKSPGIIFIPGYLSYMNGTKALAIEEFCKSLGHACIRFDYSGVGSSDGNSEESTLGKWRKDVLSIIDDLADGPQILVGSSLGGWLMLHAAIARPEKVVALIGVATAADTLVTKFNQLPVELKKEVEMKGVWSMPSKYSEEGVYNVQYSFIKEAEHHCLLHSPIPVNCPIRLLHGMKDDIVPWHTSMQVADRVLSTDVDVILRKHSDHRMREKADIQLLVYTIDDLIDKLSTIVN

Compound: Nc1ncnc2c1ncn2[C@@H]1O[C@H](COP(=O)(O)OP(=O)(O)NP(=O)(O)O)[C@@H](O)[C@H]1O [adenylyl imidodiphosphate]
Test: NP40-soluble protein abundance relative to vehicle (solubility fold change) (ratio); higher = more soluble protein in presence of AMP-PNP
How it was run: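 Across three independent experiments, values are fold changes against the detergent-processed vehicle for each replicate, based on vsn-normalised intensities. The samples were Jurkat crude lysate treated with eight concentrations (0.1 to 10 mM) for 10 min at room temperature and then 3 min at 37 °C. Lysate was solubilised with 0.8% NP40 and benzonase, ultracentrifuged, and the supernatant analysed by TMT-labelled LC-MS/MS.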

Target	NP40-soluble protein abundance (concentration: 1mM)	NP40-soluble protein abundance (concentration: 2mM)	NP40-soluble protein abundance (concentration: 4mM)	NP40-soluble protein abundance (concentration: 6mM)	NP40-soluble protein abundance (concentration: 8mM)	NP40-soluble protein abundance (concentration: 10mM)
UniProt Q9P1F3	0.954 ± 0.025	1.03 ± 0.093	0.978 ± 0.025	0.975 ± 0.032	1.01 ± 0.014	0.983 ± 0.062
KCMF1 (UniProt Q9P0J7)	0.969 ± 0.048	0.981 ± 0.046	0.964 ± 0.069	0.988 ± 0.071	0.951 ± 0.078	0.994 ± 0.12
KIF15 (UniProt Q9NS87)	1.02 ± 0.017	1.04 ± 0.016	1.0173 ± 0.00066	0.983 ± 0.035	0.963 ± 0.015	0.977 ± 0.026
PAG1 (UniProt Q9NWQ8)	1.04 ± 0.035	1.08 ± 0.043	1.05 ± 0.054	1.01 ± 0.049	1 ± 0.018	1.01 ± 0.05
BIRC6 (UniProt Q9NR09)	0.977 ± 0.044	0.958 ± 0.068	0.964 ± 0.07	0.921 ± 0.06	0.894 ± 0.06	0.899 ± 0.091
UniProt Q9P0W2 and related entries	0.947 ± 0.025	0.99 ± 0.033	0.962 ± 0.03	0.965 ± 0.03	0.955 ± 0.033	0.9461 ± 0.0086
UniProt Q9NWK9 and related entries	1.05 ± 0.032	1.05 ± 0.035	1.01 ± 0.029	0.965 ± 0.015	0.958 ± 0.022	0.972 ± 0.025
TDP1 (UniProt Q9NUW8)	1.03 ± 0.015	1.02 ± 0.019	1.01 ± 0.018	0.996 ± 0.015	1 ± 0.031	0.987 ± 0.032
UniProt Q9NX55	1.05 ± 0.014	1.08 ± 0.045	1.059 ± 0.0087	1.01 ± 0.015	1.02 ± 0.011	1.017 ± 0.008
UniProt Q9NQG7 and related entries	1.04 ± 0.058	1.06 ± 0.088	1.05 ± 0.048	1.02 ± 0.011	1.03 ± 0.097	1.02 ± 0.06
UniProt Q9NYM9 and related entries	1.01 ± 0.022	1.08 ± 0.071	0.997 ± 0.039	0.996 ± 0.037	0.965 ± 0.017	0.968 ± 0.017
UniProt Q9NX74	0.996 ± 0.027	0.985 ± 0.03	0.986 ± 0.038	0.9913 ± 0.0087	0.998 ± 0.028	1.02 ± 0.018
PDLIM7 (UniProt Q9NR12)	0.989 ± 0.035	0.997 ± 0.032	0.995 ± 0.01	0.994 ± 0.03	0.971 ± 0.019	0.986 ± 0.038
MED4 (UniProt Q9NPJ6)	1.01 ± 0.011	1.007 ± 0.0065	1.01 ± 0.022	1.01 ± 0.042	0.999 ± 0.039	0.992 ± 0.041
UniProt Q9NXR7	1.03 ± 0.056	1.03 ± 0.063	1.04 ± 0.072	0.993 ± 0.041	0.994 ± 0.042	0.995 ± 0.044
UniProt Q9NX14 and related entries	1.1 ± 0.021	1.02 ± 0.032	0.963 ± 0.016	0.963 ± 0.045	0.928 ± 0.026	0.923 ± 0.019
PHPT1 (UniProt Q9NRX4)	0.985 ± 0.018	0.991 ± 0.03	0.949 ± 0.039	0.988 ± 0.019	0.964 ± 0.035	0.951 ± 0.035
PAK1IP1 (UniProt Q9NWT1)	1.02 ± 0.013	1.05 ± 0.042	1.07 ± 0.017	1.147 ± 0.011	1.166 ± 0.011	1.22 ± 0.033
UniProt Q9NVK5 and related entries	0.955 ± 0.02	1.02 ± 0.033	0.962 ± 0.0099	0.944 ± 0.012	0.956 ± 0.046	0.9541 ± 0.0067
WDR70 (UniProt Q9NW82)	1.03 ± 0.031	1.02 ± 0.034	1.02 ± 0.03	1.025 ± 0.0076	1.04 ± 0.017	1.03 ± 0.02
UniProt Q9NRP2 and related entries	1.01 ± 0.021	1.09 ± 0.18	0.978 ± 0.032	0.97 ± 0.046	0.91 ± 0.04	0.939 ± 0.038
ABCF3 (UniProt Q9NUQ8)	1.05 ± 0.044	0.994 ± 0.069	1.06 ± 0.051	1.02 ± 0.06	1.05 ± 0.064	1.01 ± 0.048

Part of the list above in a different format:
Target,NP40-soluble protein abundance (concentration: 1mM),NP40-soluble protein abundance (concentration: 2mM),NP40-soluble protein abundance (concentration: 4mM),NP40-soluble protein abundance (concentration: 6mM),NP40-soluble protein abundance (concentration: 8mM),NP40-soluble protein abundance (concentration: 10mM)
PDLIM7 (UniProt Q9NR12),0.989 ± 0.035,0.997 ± 0.032,0.995 ± 0.01,0.994 ± 0.03,0.971 ± 0.019,0.986 ± 0.038
MED4 (UniProt Q9NPJ6),1.01 ± 0.011,1.007 ± 0.0065,1.01 ± 0.022,1.01 ± 0.042,0.999 ± 0.039,0.992 ± 0.041
UniProt Q9NXR7,1.03 ± 0.056,1.03 ± 0.063,1.04 ± 0.072,0.993 ± 0.041,0.994 ± 0.042,0.995 ± 0.044
UniProt Q9NX14 and related entries,1.1 ± 0.021,1.02 ± 0.032,0.963 ± 0.016,0.963 ± 0.045,0.928 ± 0.026,0.923 ± 0.019
PHPT1 (UniProt Q9NRX4),0.985 ± 0.018,0.991 ± 0.03,0.949 ± 0.039,0.988 ± 0.019,0.964 ± 0.035,0.951 ± 0.035
PAK1IP1 (UniProt Q9NWT1),1.02 ± 0.013,1.05 ± 0.042,1.07 ± 0.017,1.147 ± 0.011,1.166 ± 0.011,1.22 ± 0.033
UniProt Q9NVK5 and related entries,0.955 ± 0.02,1.02 ± 0.033,0.962 ± 0.0099,0.944 ± 0.012,0.956 ± 0.046,0.9541 ± 0.0067
WDR70 (UniProt Q9NW82),1.03 ± 0.031,1.02 ± 0.034,1.02 ± 0.03,1.025 ± 0.0076,1.04 ± 0.017,1.03 ± 0.02
UniProt Q9NRP2 and related entries,1.01 ± 0.021,1.09 ± 0.18,0.978 ± 0.032,0.97 ± 0.046,0.91 ± 0.04,0.939 ± 0.038

Additional results follow.

Target	NP40-soluble protein abundance (concentration: 1mM)	NP40-soluble protein abundance (concentration: 2mM)	NP40-soluble protein abundance (concentration: 4mM)	NP40-soluble protein abundance (concentration: 6mM)	NP40-soluble protein abundance (concentration: 8mM)	NP40-soluble protein abundance (concentration: 10mM)
UniProt Q9NZM5	1 ± 0.027	1.05 ± 0.047	1.05 ± 0.038	1.03 ± 0.05	1.04 ± 0.02	1.09 ± 0.044
UniProt Q9UBK8 and related entries	0.928 ± 0.02	0.881 ± 0.038	0.916 ± 0.041	0.971 ± 0.031	0.94 ± 0.051	0.964 ± 0.049
UniProt Q9P035 and related entries	0.913 ± 0.038	0.855 ± 0.082	0.9571 ± 0.0078	1.01 ± 0.087	1.03 ± 0.071	1.03 ± 0.03
UniProt Q9NVX2 and related entries	0.98 ± 0.053	0.901 ± 0.058	0.962 ± 0.031	0.969 ± 0.065	0.994 ± 0.034	0.964 ± 0.04
UTP6 (UniProt Q9NYH9)	0.951 ± 0.048	0.904 ± 0.012	0.963 ± 0.035	0.989 ± 0.071	1.04 ± 0.13	0.964 ± 0.016
IARS2 (UniProt Q9NSE4)	0.962 ± 0.033	0.9 ± 0.076	0.94 ± 0.015	0.937 ± 0.02	0.937 ± 0.011	0.892 ± 0.015
LANCL2 (UniProt Q9NS86)	0.975 ± 0.017	0.954 ± 0.019	0.982 ± 0.032	0.998 ± 0.028	1.03 ± 0.038	0.98 ± 0.035
KIF13B (UniProt Q9NQT8)	0.994 ± 0.024	0.99038 ± 0.00094	1 ± 0.023	0.971 ± 0.025	0.9428 ± 0.0089	0.977 ± 0.013
UniProt Q9NQ66 and related entries	1.02 ± 0.04	1.03 ± 0.019	1.07 ± 0.041	1.017 ± 0.0059	1.04 ± 0.011	1.07 ± 0.028
ADPRHL2 (UniProt Q9NX46)	0.979 ± 0.041	0.976 ± 0.035	0.978 ± 0.022	0.986 ± 0.029	0.959 ± 0.019	0.98 ± 0.03
UniProt Q9P2A4 and related entries	1.02 ± 0.049	1.044 ± 0.01	1.06 ± 0.034	1.02 ± 0.022	0.996 ± 0.031	1.02 ± 0.025
NHP2 (UniProt Q9NX24)	1 ± 0.013	0.997 ± 0.019	1.06 ± 0.05	1.14 ± 0.02	1.19 ± 0.021	1.2 ± 0.022
UniProt Q9P0B6	1.03 ± 0.042	1.09 ± 0.058	1.01 ± 0.053	0.983 ± 0.063	0.999 ± 0.041	0.977 ± 0.099
EXOSC5 (UniProt Q9NQT4)	1.019 ± 0.0097	1.06 ± 0.046	1.08 ± 0.029	1.14 ± 0.045	1.14 ± 0.087	1.19 ± 0.11
KLHL11 (UniProt Q9NVR0)	0.965 ± 0.019	0.942 ± 0.052	0.969 ± 0.045	0.921 ± 0.034	0.94 ± 0.022	0.932 ± 0.043
UniProt Q9NQS7 and related entries	1.02 ± 0.02	1.05 ± 0.038	1.05 ± 0.065	1.13 ± 0.12	1.15 ± 0.14	1.19 ± 0.2
RTN4 (UniProt Q9NQC3)	1.05 ± 0.014	1.07 ± 0.057	1.04 ± 0.028	1.02 ± 0.014	1.01 ± 0.032	1.03 ± 0.065
UniProt Q9NRX1 and related entries	1 ± 0.057	1 ± 0.035	1.01 ± 0.011	1.03 ± 0.011	1.072 ± 0.01	1.12 ± 0.033
ABHD10 (UniProt Q9NUJ1)	0.962 ± 0.017	0.927 ± 0.063	0.934 ± 0.043	1.02 ± 0.028	0.989 ± 0.016	0.997 ± 0.039
UniProt Q9NT62 and related entries	1.05 ± 0.041	1.06 ± 0.073	1.05 ± 0.068	0.98 ± 0.042	1.01 ± 0.042	0.997 ± 0.074
UniProt Q9NVX0 and related entries	1.03 ± 0.047	0.998 ± 0.02	1.02 ± 0.039	0.978 ± 0.062	0.987 ± 0.045	0.982 ± 0.049
